We go through 1 molecule from patent US20240016892A1.

No constants are given. Whether binding was seen depends on the method and setting. Some results given as binding are weak or reduced against the parent protein; the word gives no strength. Where a sequence is shown, tags or fusion partners need not be part of it.

The target in the assay is FCγR2A (CD32). Description: MSD receptor binding assay, FCγR2A (CD32); drug at 10 µg/mL.

B1: human TIGIT-Fc-LIGHT chimeric protein (Fc fusion)
chain: MMTGTIETTGNISAEKGGSIILQCHLSSTTAQVTQVNWEQQDQLLAICNADLGWHISPSFKDRVAPGPGLGLTLQSLTVNDTGEYFCIYHTYPDGTYTGRIFLEVLESSVAEHGARFQIPSKYGPPCPPCPAPEFLGGPSVFLFPPKPKDQLMISRTPEVTCVVVDVSQEDPEVQFNWYVDGVEVHNAKTKPREEQFNSTYRVVSVLTVLHQDWLSGKEYKCKVSSKGLPSSIEKTISNATGQPREPQVYTLPPSQEEMTKNQVSLTCLVKGFYPSDIAVEWESNGQPENNYKTTPPVLDSDGSFFLYSRLTVDKSRWQEGNVFSCSVLHEALHNHYTQKSLSLSLGKIEGRMDLQLHWRLGEMVTRLPDGPAGSWEQLIQERRSHEVNPAAHLTGANSSLTGSGGPLLWETQLGLAFLRGLSYHDGALVVTKAGYYYIYSKVQLGGVGCPLGLASTITHGLYKRTPRYPEELELLVSQQSPCGRATSSSRVWWDSSFLGGVVHLEAGEKVVVRVLDERLVRLRDGTRSYFGAFMV
Turning to B1, the binding entry is “binds”.
